Results are given in words; binding and its absence hold for the method and conditions named. Where a sequence is shown, tags or fusion partners need not be part of it.
Columns and labels:
[1] = molecular target: T1, His-tagged full-length C-terminal cytoplasmic domain of BAP31 (residues 124-242) (human) (UniProt P51572); assay: pull-down; IMAC pull-down, His-tagged protein adsorbed to Ni-NTA beads, untagged protein run over in excess, 20 mM Na-P pH 7, 150 mM NaCl, 0.5 mM TCEP, 30 mM imidazole wash, 500 mM imidazole elution, 4 °C; both purified
T1 sequence: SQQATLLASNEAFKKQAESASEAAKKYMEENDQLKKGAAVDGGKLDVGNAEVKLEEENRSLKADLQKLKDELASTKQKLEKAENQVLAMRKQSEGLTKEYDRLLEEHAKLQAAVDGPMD

[2] = molecular target: T2, BAP31 vDED (variant of death effector domain of human BAP31, residues 168-233), untagged (human) (UniProt P51572); assay: SEC; analytical gel filtration, Superdex 200 5/150 GL, proteins alone or together at 75 µM, pH 7.0, 4 °C; both purified
T2 sequence: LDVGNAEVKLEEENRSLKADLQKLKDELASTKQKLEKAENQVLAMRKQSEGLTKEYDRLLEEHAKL

[3] = molecular target: BAP29 vDED (variant of death effector domain of human BAP29, residues 168-229), untagged (human) (UniProt Q9UHQ4); assay: cross-linking; 0.024% glutaraldehyde, ~0.5 mg/mL protein, 20 mM HEPES pH 7.5, 150 mM NaCl, 20 mM TCEP in the dialysis buffer, room temperature, quenched at various time points, SDS-PAGE; both purified
[4] = molecular target: BAP29 vDED (variant of death effector domain of human BAP29, residues 168-229), untagged (human) (UniProt Q9UHQ4); assay: cross-linking; 5.5 mM DMS, protein at 0.5, 1.5 and 4.0 mg/mL, 20 mM HEPES pH 7.5, 150 mM NaCl (20 mM TCEP in the dialysis buffer for BAP29), 1 hour at room temperature, SDS-PAGE; both purified
[5] = molecular target: T3, His-tagged BAP31 vDED (residues 168-233) (human) (UniProt P51572); assay: pull-down; IMAC pull-down after denaturing (6M guanidinium-HCl) and renaturing (20 mM Tris-HCl pH 8.0, 75 mM NaCl, 2 mM TCEP) the two proteins together; Ni-NTA beads, 4 °C, washes up to 40 mM imidazole, elution 200 mM imidazole; both purified
T3 sequence: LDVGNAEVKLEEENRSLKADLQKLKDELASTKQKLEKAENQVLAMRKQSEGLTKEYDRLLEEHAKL

[6] = molecular target: T2, BAP31 vDED (variant of death effector domain of human BAP31, residues 168-233), untagged (human); assay: SEC; analytical gel filtration, Superdex 200 5/150 GL, proteins alone or together at 75 µM, pH 4.2, 4 °C; both purified
[7] = molecular target: T4, His-tagged full-length C-terminal cytoplasmic domain of BAP29 (residues 125-237) (human) (UniProt Q9UHQ4); assay: pull-down; IMAC pull-down, His-tagged protein adsorbed to Ni-NTA beads, untagged protein run over in excess, 20 mM Na-P pH 7, 150 mM NaCl, 0.5 mM TCEP, 30 mM imidazole wash, 500 mM imidazole elution, 4 °C; both purified
T4 sequence: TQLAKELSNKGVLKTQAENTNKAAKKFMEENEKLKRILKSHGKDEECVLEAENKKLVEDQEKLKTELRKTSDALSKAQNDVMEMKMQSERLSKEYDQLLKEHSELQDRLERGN

B1: BAP29 full-length C-terminal cytoplasmic region (residues 125-237), untagged (protein)
chain: TQLAKELSNKGVLKTQAENTNKAAKKFMEENEKLKRILKSHGKDEECVLEAENKKLVEDQEKLKTELRKTSDALSKAQNDVMEMKMQSERLSKEYDQLLKEHSELQDRLERGN
binding [1]: no binding

B2: BAP29 vDED (variant of death effector domain of human BAP29, residues 168-229), untagged (domain or fragment, UniProt Q9UHQ4 168-229)
chain: DEECVLEAENKKLVEDQEKLKTELRKTSDALSKAQNDVMEMKMQSERLSKEYDQLLKEHSEL
binding [2]: no binding (tested: 75 µM) | binding [3]: no binding | binding [4]: no binding | binding [5]: no binding | binding [6]: no binding (tested: 75 µM)

B3: BAP31 full-length C-terminal cytoplasmic region (residues 124-242), untagged (domain or fragment, human, UniProt P51572 124-242, looked up)
chain: SQQATLLASNEAFKKQAESASEAAKKYMEENDQLKKGAAVDGGKLDVGNAEVKLEEENRSLKADLQKLKDELASTKQKLEKAENQVLAMRKQSEGLTKEYDRLLEEHAKLQAAVDGPMD
notes: BAP31, human, UniProt P51572, C-terminal cytoplasmic region, residues 124-242; also called BAP31 Cyt; BAP31 full-length cytoplasmic; source: E. coli BL21(DE3) Rosetta 2, purified (IMAC, TEV cleavage, reverse IMAC, gel filtration); not shown: His6, N-terminal, cleaved
binding [7]: no binding

Reference: publication PMC3742741 (PLoS ONE, 2013)
